# Laboratory results taken from patent US6967192B2, “Seventeen amino acid peptide (Peptide P) for treating ischemia and reperfusion injury” (University of Kentucky Research Foundation, priority 2001, dated 2005).
# Test system: murine model of ischemia/reperfusion injury (cerebral ischemia)
# Test: Murine ischemia/reperfusion model: cerebral blood flow by laser-Doppler flowmetry
substance,measurement,setting,value
"Tyr-D-Ala-Phe-Ala-Asp-Val-Ala-Ser-Thr-Ile-Gly-Asp-Phe-Phe-His-Ser-Ile-NH2 (AFADVASTIGDFFHSI; D-Ala, C-terminal amide; printed: Ala-Phe-Ala-Asp-Val-Ala-Ser-Thr-Ile-Gly-Asp-Phe-Phe-His-Ser-Ile-) [Peptide P]",time for cerebral blood flow to return to baseline levels after cessation of ischemia,after 1 hour MCAO,≤ 0.5 h
same,reduction in cerebral blood flow upon induction of ischemia,"sustained for 1 hour during the ischemia, same in control animals",25%
